Some of the results follow. These are further read-outs of the screen, such as a control signal, another cell line or another target. No call is given for them. The list favours compounds with an active or inconclusive main result. The note in brackets gives the kind of curve behind each potency; many fits are weak.
Assay: qHTS Assay to Find Inhibitors of Chronic Active B-Cell Receptor Signaling
Details: ABC-DLBCL IkBa-CBG/CBR reporter, luminescence ratio (green luciferase fused to IkBa over red control in TMD8 lymphoma cells), 4 h
In short: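 TMD8 ABC-DLBCL cells carrying doxycycline-inducible green luciferase fused to IkappaBalpha plus unfused red luciferase were exposed to compounds (up to 46 uM) for 4 hrs at 37C. Activity came from the overlap-corrected green/red luminescence ratio.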

[1] = measured here: CBR red luminescence, cell number
[2] = measured here: IkBa-CBG green luminescence

Question: With `CCCNC(=O)C1CCN(S(=O)(=O)c2ccc(-c3nn[nH]n3)cc2)CC1` as the molecule, how does the AC50 [1] read?
Answer: 1.64 µM [falling, partial curve, poor fit]

Question: With `COCCNC(=O)C(c1ccc(C)o1)N(Cc1cccs1)C(=O)c1snc(C(N)=O)c1N` (stereo not given) as the molecule, how does the AC50 [1] read?
Answer: 1.16 µM [falling, full curve]

Question: For `Cc1ccc(-c2ccc(=O)n(Cc3ccc(F)cc3)n2)cc1`, which AC50 [1] is on record?
Answer: 17.8 µM [falling, partial curve]

Question: Which AC50 [1] does the source give for `COC(=O)c1ccc(N=NN2CCCCC2)cc1` here?
Answer: 0.562 µM [rising, full curve, poor fit]

Question: With `O=C1NN(c2ccccc2)C(=O)/C1=C/c1ccc(-c2ccc(C(=O)O)cc2)o1` as the molecule, how does the AC50 [1] read?
Answer: 11.2 µM [falling, partial curve]

Question: Which AC50 [1] does the source give for `C(=N\Nc1nncc2ccccc12)/c1ccccc1` here?
Answer: 12.6 µM [falling, single point]

Question: Which AC50 [1] does the source give for `COc1cc(Cn2c(N)c(C#N)c3nc4ccccc4nc32)cc(OC)c1` here?
Answer: 25.1 µM [falling, single point]

Question: With `N#CC(C(=O)NC1CC1)c1nc2ccccc2nc1N1CCCC1` (stereo not given) as the molecule, how does the AC50 [1] read?
Answer: 17.8 µM [falling, partial curve, poor fit]

Question: Which AC50 [1] does the source give for `Cc1ccc(N2CCN(C(=O)c3cc(COc4c(C)cccc4C)on3)CC2)c(C)c1` here?
Answer: 0.355 µM [rising, partial curve, poor fit]

Question: With `COc1ccc2c(c1)CCC1C2=NN(/C(C)=C/C(C)=O)C1c1cccc(F)c1` (stereo not given) as the molecule, how does the AC50 [1] read?
Answer: 2.24 µM [rising, partial curve, poor fit]

Question: For `COc1ccc([C@H]2CC(=O)C=C(c3ccc(C)cc3)C2)cc1`, which AC50 [2] is on record?
Answer: 25.9 µM [rising, partial curve, poor fit]

Question: Which AC50 [1] does the source give for `O=C(O)CC12CC3CC(C1)CC(n1ncc(NCc4ccccc4)c(Cl)c1=O)(C3)C2` here?
Answer: 12.6 µM [rising, partial curve, poor fit]

Question: Which AC50 [1] does the source give for `CCN(C(=O)/C=C/c1ccc2c(c1)OCO2)c1ccccc1` here?
Answer: 0.92 µM [falling, full curve, poor fit]

Question: Which AC50 [1] does the source give for `CCCNC(=O)C1(CC2CC(c3ccccc3)=NO2)CCN(C(=O)c2ccccc2)CC1` (stereo not given) here?
Answer: 8.2 µM [rising, partial curve, poor fit]

Question: Which AC50 [1] does the source give for `O=C(Cc1ccc(Cl)cc1)Nc1ccc(N2CCN(C(=O)c3ccco3)CC2)c(Cl)c1` here?
Answer: 22.4 µM [falling, single point]

Question: With `Cc1noc(C)c1CSc1nc2ccccc2s1` as the molecule, how does the AC50 [1] read?
Answer: 2.91 µM [rising, partial curve, poor fit]

Question: For `Cc1ccc(NC(=O)Nc2nnc(Cc3ccc(F)cc3)s2)cc1`, which AC50 [1] is on record?
Answer: 20 µM [rising, partial curve]

Question: Which AC50 [1] does the source give for `Cc1c(OC(C)C(=O)NCc2ccccn2)ccc2c3c(c(=O)oc12)CCC3` (stereo not given) here?
Answer: 3.55 µM [rising, single point]

Question: Which AC50 [1] does the source give for `Cc1ccc2c(C)nc(N/C(N)=N/S(=O)(=O)c3ccc([N+](=O)[O-])cc3)nc2c1` here?
Answer: 10.3 µM [rising, partial curve, poor fit]

Question: For `COc1cc(-c2cc(C(=O)Nc3ccc(C)c(S(=O)(=O)N4CCOCC4)c3)c3ccccc3n2)cc(OC)c1OC`, which AC50 [1] is on record?
Answer: 0.103 µM [rising, full curve, poor fit]

Question: Which AC50 [1] does the source give for `O=C(Cn1cccc1)Nc1ccc(OC(F)(F)F)cc1` here?
Answer: 2.24 µM [rising, full curve, poor fit]

Question: With `CCN(CC(=O)NC(C)C)Cc1nc2c(Br)cc(Br)cc2c(=O)[nH]1` as the molecule, how does the AC50 [1] read?
Answer: 11.2 µM [falling, partial curve]

Question: For `CN(C)S(=O)(=O)n1cc(/C=C(\NC(=O)c2ccccc2F)C(=O)NCCCn2ccnc2)c2ccccc21`, which AC50 [1] is on record?
Answer: 14.1 µM [falling, partial curve, poor fit]

Question: With `OC(c1cc(C(F)(F)F)nc2c(C(F)(F)F)cccc12)C1CCCCN1` (stereo not given) as the molecule, how does the AC50 [1] read?
Answer: 23.1 µM [falling, partial curve, poor fit]

Question: And the AC50 [2]?
Answer: 1.84 µM [rising, full curve, poor fit]

Question: With `Clc1ccc(OCCN2CCOCC2)cc1Cl` as the molecule, how does the AC50 [1] read?
Answer: 29.1 µM [rising, single point]

Question: For `Cc1ccc(S(=O)(=O)N2CCCC(C(=O)Nc3cccnc3)C2)cc1` (stereo not given), which AC50 [1] is on record?
Answer: 20.6 µM [falling, single point]

Question: For `COc1cc(N=Cc2c(O)c3ccccc3oc2=O)c(OC)cc1Cl`, which AC50 [1] is on record?
Answer: 1 µM [falling, full curve, poor fit]

Question: For `COc1ccccc1N1CCN(C(=O)c2cc3c(=O)n4ccccc4nc3s2)CC1`, which AC50 [1] is on record?
Answer: 1.3 µM [rising, full curve]

Question: With `Cc1c(NC(=O)/C(C#N)=C/c2ccc(-c3ccc(Cl)cc3)o2)c(=O)n(-c2ccccc2)n1C` as the molecule, how does the AC50 [1] read?
Answer: 20.6 µM [falling, single point]

Question: Which AC50 [1] does the source give for `COc1ccc(/C=C/c2nc3ccccc3n2C)cc1` here?
Answer: 10 µM [falling, partial curve, poor fit]

Question: With `CCOC(=O)c1ccccc1NC(=O)c1cc2ccccc2o1` as the molecule, how does the AC50 [1] read?
Answer: 0.398 µM [falling, full curve, poor fit]

Question: For `O=C(NC1CC2CCCC(C1)N2C(=O)NC1CCCCC1)c1ccccc1` (stereo not given), which AC50 [1] is on record?
Answer: 20.6 µM [falling, single point]

Question: With `Fc1ccc(CO/N=C/C2=C(Cl)c3ccccc3CC2)cc1` as the molecule, how does the AC50 [1] read?
Answer: 22.4 µM [rising, single point]

Question: Which AC50 [1] does the source give for `COc1ccc(Br)cc1S(=O)(=O)N1CCOCC1` here?
Answer: 20.6 µM [rising, single point]

Question: Which AC50 [1] does the source give for `O=C(NNc1ncnc2sccc12)c1ccc(Cl)cc1` here?
Answer: 15.8 µM [falling, single point]

Question: With `Cc1ccc(C)c(C(=O)CSc2nc3ccccc3c(=O)[nH]2)c1` as the molecule, how does the AC50 [1] read?
Answer: 10 µM [rising, partial curve, poor fit]

Question: With `CC(=O)c1ccccc1NC(=O)COC(=O)c1ccccc1NC(=O)c1ccccc1` as the molecule, how does the AC50 [1] read?
Answer: 4.61 µM [falling, partial curve]

Question: With `CCOc1ccc(N=C(/C(C(=O)C(=O)N2CCOCC2)=C(/O)c2ccccc2)c2ccccc2)cc1` as the molecule, how does the AC50 [1] read?
Answer: 15.8 µM [falling, partial curve, poor fit]

Question: For `O=c1c2cn[nH]c2nc(SCc2ccc3c(c2)OCCO3)n1-c1ccccc1`, which AC50 [1] is on record?
Answer: 20.6 µM [falling, single point]

Question: Which AC50 [1] does the source give for `CC(=O)CC1(C)OC(N)=C(C#N)C1(C#N)C#N` (stereo not given) here?
Answer: 35.5 µM [falling, single point]

Question: For `COc1ccc2cc(C(=O)/C=C/c3cc(OC)c(O)c(OC)c3)ccc2c1`, which AC50 [1] is on record?
Answer: 20 µM [falling, partial curve, poor fit]

Question: Which AC50 [1] does the source give for `COc1cc(OC)cc(C(=O)Nc2cccc(NC(=O)c3ccccc3)c2)c1` here?
Answer: 15.8 µM [falling, partial curve]

Question: For `O=C(NC(=S)Nc1cccc(NC(=O)c2ccccc2Cl)c1)c1cccs1`, which AC50 [1] is on record?
Answer: 2.31 µM [falling, full curve]

Question: Which AC50 [1] does the source give for `c1ccc(-c2noc(-c3cccs3)n2)nc1` here?
Answer: 25.9 µM [falling, single point]

Question: With `Cc1cccc(C)c1NC(=O)C(=O)c1cn(C)c2ccccc12` as the molecule, how does the AC50 [1] read?
Answer: 12.6 µM [falling, partial curve, poor fit]

Question: With `Cn1c(CNC(=O)c2ccco2)nnc1SCC(=O)c1ccc(Br)cc1` as the molecule, how does the AC50 [1] read?
Answer: 1.26 µM [rising, full curve, poor fit]

Question: For `O=C(O)c1cc(N/N=C/C=C/c2ccccc2)ccc1Cl`, which AC50 [1] is on record?
Answer: 3.16 µM [falling, partial curve]

Question: For `CSc1nc(C)c2c(c1C#N)CCCC2`, which AC50 [1] is on record?
Answer: 29.1 µM [rising, partial curve, poor fit]

Question: What about the AC50 [2] of the same molecule?
Answer: 20.6 µM [falling, single point]

Question: With `COc1ccc([C@H]2[C@H](C(=O)C(C)(C)C)N3N=Cc4ccccc4C3C23C(=O)OC(C)(C)OC3=O)cc1` (stereo not given in full) as the molecule, how does the AC50 [1] read?
Answer: 0.461 µM [rising, partial curve, poor fit]

Question: Which AC50 [1] does the source give for `COc1ccc(C2CC(=O)c3cnc(NC(=O)c4cc(OC)cc(OC)c4)nc3C2)cc1` (stereo not given) here?
Answer: 11.2 µM [falling, partial curve]

Question: With `O=C(Nc1ccccc1)Nc1ccc2ocnc2c1` as the molecule, how does the AC50 [1] read?
Answer: 20 µM [falling, single point]

Question: Which AC50 [1] does the source give for `Cc1cc(C)c2c(=O)[nH]n(C3CC(C)N(C)CC3C)c2n1` (stereo not given) here?
Answer: 25.9 µM [rising, single point]

Question: With `CC1CCC(NC(=O)Nc2cccs2)CC1` (stereo not given) as the molecule, how does the AC50 [1] read?
Answer: 0.82 µM [rising, full curve, poor fit]

Question: Which AC50 [1] does the source give for `COc1ccc(N2C(=O)C3C(C2=O)C(C(=O)c2ccc(Cl)cc2)N2CCCC32)cc1` (stereo not given) here?
Answer: 28.2 µM [falling, single point]

Question: With `CC(CC(=O)N(C)c1c(N)n(Cc2ccccc2)c(=O)[nH]c1=O)c1ccccc1` (stereo not given) as the molecule, how does the AC50 [1] read?
Answer: 0.291 µM [rising, full curve, poor fit]

Question: For `CCN(CC(=O)NC(C)(C)C)C(=O)COc1c(Cl)cc(Cl)c2ccc(C)nc12`, which AC50 [1] is on record?
Answer: 35.5 µM [rising, single point]

Question: And the AC50 [2]?
Answer: 35.5 µM [falling, single point]

Question: With `CC1CCCN(CCOCCOc2ccc(Cl)cc2Br)C1` (stereo not given) as the molecule, how does the AC50 [1] read?
Answer: 4.47 µM [falling, partial curve]

Question: For `CCCOc1cccc(C(=O)Nc2ccc3c(c2)OCCO3)c1`, which AC50 [1] is on record?
Answer: 20 µM [falling, partial curve, poor fit]

Question: With `O=C(O)c1ccccc1C(=O)c1ccc(Sc2ccc(Cl)cc2)c([N+](=O)[O-])c1` as the molecule, how does the AC50 [1] read?
Answer: 14.1 µM [falling, single point]

Question: With `O=C(NCc1ccccn1)C1CCN(Cc2cnn(-c3ccccc3)c2-n2cccc2)CC1` as the molecule, how does the AC50 [1] read?
Answer: 6.51 µM [rising, single point]

Question: With `COc1ccccc1Oc1ccc(S(=O)(=O)NCc2ccccn2)cc1` as the molecule, how does the AC50 [1] read?
Answer: 0.92 µM [rising, partial curve]

Question: Which AC50 [1] does the source give for `COc1ccccc1C(=O)Nc1nc(N)n(-c2ccccc2)n1` here?
Answer: 35.5 µM [falling, single point]

Reference: PubChem BioAssay AID493014 (National Center for Advancing Translational Sciences (NCATS), 2011)
